The source of these data is article PMC11375011, “Inducible auto-phosphorylation regulates a widespread family of nucleotidyltransferase toxins” (Nature Communications, 2024).

By UniProt entry, the sequences of proteins in these tests, tags left out. Where a name states a change or a piece, a line headed by the entry shows the natural chain unless it says otherwise.
UniProt L7N686: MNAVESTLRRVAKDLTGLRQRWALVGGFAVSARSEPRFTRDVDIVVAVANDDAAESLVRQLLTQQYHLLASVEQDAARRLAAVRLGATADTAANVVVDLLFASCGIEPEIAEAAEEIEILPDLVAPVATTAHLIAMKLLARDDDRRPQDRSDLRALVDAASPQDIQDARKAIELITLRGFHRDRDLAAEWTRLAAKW

Assay [1] has as its target MenT1 co-expressed with MenA1 (Mycobacterium tuberculosis) (UniProt L7N686). As to the kind of experiment: SEC.
Assay [2] addresses MenT1-p (MenT1 phosphorylated at T39) (Mycobacterium tuberculosis) (UniProt L7N686). The assay can be described thus: SEC; both purified. (In general: SEC sorts molecules by how far they enter the pores of the column.)
Assay [3] has as its target MenT1 wild type (Mycobacterium tuberculosis) (UniProt L7N686). The assay can be described thus: SEC; both purified.

No constants are given. Whether binding was seen depends on the method and setting. Binding can be weak; no strength is given.

B1: MenA1 co-expressed with MenT1 (protein, UniProt I6X8G2 2-68)
chain: AVSVAAQKLRLALDMYEVGEQMQRMRLGRERPNADVVEIEAAIDAWRMTRPGAEEGDSAGPTSTRFT
With B1, the binding result in assay [1] was “binds”.

B2: MenA1 wild type (protein, UniProt I6X8G2 2-68)
chain: B1 chain
For the molecule B2, the binding entry in assay [2] and in assay [3] was “binds” each time.
